According to PubChem BioAssay AID651640 (Broad Institute, 2012):
“And” between values parts separate entries of the source, which are not always exact repeats. Equal entries are not always repeated. Among all 350,000 compounds or so, about 6,000 (1.7%) were called active. This list was built around the results that the source calls inconclusive (neither active nor inactive); the mix of calls is not that of the screen. Rule as the data show it: active = CPE inhibition above about 20% (passing the limit was not always enough); inconclusive = no clear call, values can overlap the other calls; tested in BHK-21 cells.

assay: protection of cells from dengue 2 killing – plate reader, single concentration, primary screen (AID 651640); conditions: DENV2-infected cells, cytopathic effect rescue, at 9.99 µM, stronger effect = higher value;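 also: 0% = median of neutral control wells and 100% = median of positive control wells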

Row | Compound | CPE inhibition
1 | CCCNC(=O)N(C)C[C@H]1Oc2cc(C#CC3CC3)ccc2S(=O)(=O)N([C@@H](C)CO)C[C@@H]1C | inconclusive: 33.4%
2 | CC(=O)Nc1cc(-c2cccc(C)c2)cn2c(-c3ccc(S(C)(=O)=O)cc3)cnc12 | inconclusive: 25%
3 | Cc1c(CC(=O)NCCC(C)C)c(=O)oc2cc3c(cc12)CCC(C)(C)O3 | inconclusive: 41.3%
4 | Cc1ccc(-c2cccc(C3CC=CC4C3C(=O)N(Cc3ccccc3)C4c3ccc(C(F)(F)F)cc3)c2)cc1 (stereo not given) | active: 93.1%
5 | OC[C@@H]1[C@H](c2ccc(C#Cc3ccccc3F)cc2)[C@H]2CN(Cc3cncnc3)CCCCN12 | inactive: -25.8%
6 | COc1ccccc1/C=C/c1nc2ccc(OC(C)=O)cc2c(=O)o1 | inconclusive: 58.3%
7 | Cc1c(OC(C)C(=O)N2C[C@H]3C[C@@H](C2)c2cccc(=O)n2C3)ccc2c3c(c(=O)oc12)CCCC3 (stereo not given in full) | inconclusive: 56.9%
8 | C[C@H](CO)N1C[C@H](C)[C@@H](CN(C)S(=O)(=O)c2cccc(C#N)c2)OCc2cnnn2CCCC1=O | inconclusive: 44.9%
9 | Cc1ccc(Cl)cc1NC(=O)CC1NC2CCCCC2NC1=O (stereo not given) | inconclusive: 49.6%
10 | Cc1cccc(-c2ccc([C@H]3[C@@H](CO)N4C(=O)CN(S(=O)(=O)c5cccc(F)c5)C[C@@H]34)cc2)c1 | inconclusive: 22%
11 | CN(C)C1(CNC(=O)C2CCN(S(=O)(=O)c3ccccc3C(F)(F)F)CC2)CCCCC1 | active: 31%
12 | C[C@]12c3[nH]c4ccccc4c3CCN1C(=O)C(CC(=O)NCc1cccc(C(F)(F)F)c1)C[C@@H]2C(=O)N1CCCCC1 (stereo not given in full) | inconclusive: 26.5%
13 | O=C(C[C@H]1CC[C@H]2[C@@H](COC[C@@H](O)CN2C(=O)c2ccncc2)O1)NCc1ccc(-c2ccccc2)cc1 | inactive: 0.909%
14 | COC(=O)[C@]12C[C@H](CC(=O)N3CCC(c4ccccc4)CC3)C(=O)N(Cc3ccccc3)C1=C[C@H](C1CCCC1)O[C@@H]2C | active: 45.4%
15 | COc1ccccc1C#Cc1ccc2c(c1)[C@@H]1[C@@H](CCN1C(=O)Cc1ccccc1)[C@H](CO)N2 | active: 42.2%
16 | Cc1noc(C)c1NC(=O)N(C)C[C@H]1Oc2ccc(NC(=O)CCC(F)(F)F)cc2CC(=O)N([C@H](C)CO)C[C@@H]1C | inactive: -3.57%
17 | CCCC(=O)Nc1ccc2c(c1)OC[C@H](C)N(C(=O)c1cccnc1)C[C@H](C)[C@@H](OC)CN(C)C2=O | inactive: 3.93%
18 | C[C@@H]1CCCCO[C@H](CN(C)S(=O)(=O)c2ccccc2)[C@H](C)CN([C@@H](C)CO)C(=O)c2cc(NC(=O)Nc3ccccc3)ccc2O1 | inconclusive: 26.9%
19 | O=C(Cn1ccc(NC(=O)OCc2ccccc2)nc1=O)NCCN1CCOCC1 | inactive: 12.7%
20 | CCOc1ccc(C(C(=O)NCC2CCCO2)N(Cc2cccs2)C(=O)c2snc(C(N)=O)c2N)cc1 (stereo not given) | inconclusive: 24.9%
21 | Cc1ccc(C)c(CN2CCC(CNC(=O)Nc3cccc(Cl)c3C)CC2)c1 | inconclusive: 21.7%
22 | O=C1N[C@@H](Cc2ccccc2)COC(=O)[C@H](Cc2ccc(F)cc2)C/C=C\C[C@H]1CC(=O)N(CCO)Cc1ccccc1 | inconclusive: 42%
23 | C[C@H]1CN([C@@H](C)CO)C(=O)c2cccc(NC(=O)Nc3ccc(C(F)(F)F)cc3)c2O[C@@H]1CN(C)S(=O)(=O)c1ccc(Cl)cc1 | inconclusive: 20.2% and inactive: 2.37%

Reformatted: results already given.
Row	Compound	CPE inhibition
17	CCCC(=O)Nc1ccc2c(c1)OC[C@H](C)N(C(=O)c1cccnc1)C[C@H](C)[C@@H](OC)CN(C)C2=O	inactive: 3.93%
19	O=C(Cn1ccc(NC(=O)OCc2ccccc2)nc1=O)NCCN1CCOCC1	inactive: 12.7%

Next part:

Row | Compound | CPE inhibition
24 | COc1ccc(C#Cc2c(-c3ccccc3)n(C)c3ccccc23)cc1 | inconclusive: 57%
25 | COc1ccc(Oc2ccc(C(F)(F)F)cc2NC(=O)CC(CC(=O)O)c2ccccc2)cc1 (stereo not given) | inconclusive: 31.2%
26 | COCCn1c(=NC(=O)CSC(C)=O)sc2cc(OC)ccc21 | inactive: -1.53%
27 | O=C(NCc1ccccc1)[C@@]1(Cc2ccccc2)COC(c2ccc(OCCCO)cc2)=N1 | inactive: 1.69%
28 | O=C(C[C@@H]1CC[C@@H]2[C@H](COC[C@@H](O)CN2Cc2ccc(Oc3ccccc3)cc2)O1)Nc1nccs1 | inconclusive: 44%
29 | S=c1[nH]nc(-c2cccnc2)n1/N=C/C=C/c1ccco1 | inconclusive: 29%
30 | CC(C)Oc1ccc(CCc2nnc(SC(C)C(=O)O)n2-c2ccccc2)cc1 (stereo not given) | inactive: 5.63%
31 | C[C@H]1CN([C@@H](C)CO)C(=O)Cc2cc(NC(=O)Cc3cn(C)c4ccccc34)ccc2O[C@@H]1CN(C)C(=O)Nc1ccc(F)cc1 | inconclusive: 24.8%
32 | CCOC(=O)c1c(N)nn(C(=O)c2ccccc2)c1-c1ccccc1 | inconclusive: 30.5%
33 | O=C(Nc1ccc2c(c1)OCCO2)C1c2ccccc2OCC(=O)N1Cc1ccccn1 (stereo not given) | inconclusive: 79.9%
34 | CC(C)Oc1ccc(C(=O)Nc2c3c(nn2C(C)(C)C)CS(=O)(=O)C3)cc1 | inconclusive: 29.3%
35 | CCc1ccc(C2=NN(CCC(=O)NCC3CCCO3)C(=O)CC2)cc1 (stereo not given) | inconclusive: 22.5%
36 | O=C(CN1C(=O)NC2(CCCC2)C1=O)N1CCN(S(=O)(=O)c2ccccc2[N+](=O)[O-])CC1 | active: 38.3%
37 | O=C(c1cccnc1)N1CC[C@@H]2[C@H](CO)Nc3ccc(-c4ccc(F)cc4)cc3[C@@H]21 | inactive: 11.5%
38 | CCC(=O)c1cn(CC(=O)Nc2cccc(C)c2)c2ccccc12 | active: 69.1%
39 | COc1ccc2c3c(n(C)c2c1)[C@H](CO)N(CC1CCOCC1)CC31CN(CC2CCOCC2)C1 | inconclusive: 22.4%
40 | C/C(=N\NC(=O)c1ccn(C)n1)c1cccc(NC(=O)c2ccc(C)s2)c1 | inconclusive: 73.5%
41 | Cc1ccc(NC(=O)C2CCCCC2)cc1C | active: 70%
42 | c1ccc(SCCOCCN2CCOCC2)cc1 | inconclusive: 21.9%
43 | O=C(C[C@@H]1C[C@H]2c3cc(NC(=O)Cc4ccncc4)ccc3O[C@H]2[C@@H](CO)O1)NCCN1CCCCC1 | active: 35.5%
44 | O=C(Nc1nccs1)c1cc(-c2ccncc2)nc2ccccc12 | inconclusive: 34.1%
45 | CCOC(=O)c1cccnc1NC(=O)c1ccccc1 | inconclusive: 20.8%
